Measurements from paper PMC10674987, “Sweet Cherry Extract as Permeation Enhancer of Tyrosine Kinase Inhibitors: A Promising Prospective for Future Oral Anticancer Therapies” (Pharmaceuticals, 2023).

Legend:
[1] = test system: Caco-2 cells; test: Cell viability assay (MTT) on Caco-2 cells; assay type: cell-based, human; conditions: 2 h
Method: Cells were sub-cultured using a 1× trypsin/EDTA solution and then passed every 3–4 days at appropriate ratios (typically 1:3, 1:6, 1:12). […] After 2 h of treatment, solutions were aspirated from the wells, and the cells were washed with pre-warmed PBS. […] To supplement MTT data and support the hypothesis of no toxic effect due to treatment with SCE, cytotoxicity assays were carried out by careful examination of cells under a microscope, as indicated in USP 28 (United States Pharmacopeia edition 2005) as an alternative method. […] Furthermore, it was mandatory to identify the most suitable drug concentration that would avoid cytotoxic effects on Caco-2 cells (a condition that may bias the permeability study) and that would allow the optimal chromatographic response when analyzing the samples obtained. Therefore, cells were exposed to increasing concentrations of drugs (1–10–100 µM) for 2 h. Concentrations were chosen to identify the best one to use for permeability studies that may ensure an adequate amount of compound to be quantified by the HPLC-UV/MS method, whilst not causing cytotoxic effects that would alter the experiment. […] Cell viability was assessed as above described.

[2] = Bidirectional permeability in Caco-2 cells in absence and presence of SCE; assay type: in vitro ADME, human; conditions: human, 10 µM compound; for Papp A→B at 2 h, 10 µM: apical to basolateral; for Papp B→A at 2 h, 10 µM: basolateral to apical
Method: (§1) Caco-2 cells were seeded at a density of 2 × 10^4 on Transwell supports (0.4 µm pore polycarbonate membrane, 6.5 mm) and incubated overnight in a controlled atmosphere of 37 °C and 5% of CO2. The following day, the medium was changed to remove floating cells and fresh pre-warmed DMEM 20% was added (300 µL in the apical compartment and 1200 µL in the basal one). Cells were cultured for approximately 18–21 days in order to ensure that the cellular monolayers differentiated and many transport proteins and brush border hydrolases were expressed. Media were changed every 2–3 days.
(§2) For permeability studies, stock solutions of compounds were prepared by solubilizing 1.0 mg of accurately weighed powder with dimethyl sulfoxide (DMSO) and conserved at −20 °C. Immediately prior to the experiments, working solutions (WS) were prepared by diluting the stock solutions with pre-warmed HBSS to the final concentration of 10 µM. The final concentration of DMSO used never exceeded 0.1% v/v. The assays were performed in both the absorptive (from apical-to-basolateral compartment (A-B)) and the secretory direction (from basolateral-to-apical compartment (B-A)), both in the absence (Free) and presence of sweet cherry extract (+SCE [1 mg/mL]) diluted in HBSS. The final volumes used for the experiment were 300 µL in the apical compartment and 1200 µL in the basolateral one. Plates were incubated at 37 °C and maintained under gentle shaking (500 rpm) to reduce the effect of the unstirred water layer. At selected time points (T0–0.25–0.5–1–2 h-TEND for the A-B studies; T0–2 h–TEND for the B-A studies), samples (200 µL) were collected from the receiving compartments (from the basolateral compartment for the A-B assay; from the apical one for the B-A study) and replaced with the same volume of HBSS. The HPLC-UV/MS method was developed to quantify the amount of drug transferred across the cellular monolayer, and permeability (Papp, 10^−6 cm/s) and efflux ratio (ER) were calculated according to the following equations:Papp = (dQ/dt) × 1/(A × C0)(5) where dQ/dt is the steady-state flux (µmol s^−1), A is the area of the filter (cm^2), and C0 is the initial concentration in the donor compartment (µM). ER = (Papp B-A)/(Papp A-B)(6)
(§3) Chromatographic analyses were carried out using an Agilent 1260 Infinity HPLC-DAD system connected to an Agilent MSD 6130 system (Agilent Technologies, Palo Alto, CA, USA). At room temperature, a Kinetex C18-100 Å column (150 mm 4.6 mm, purchased from Phenomenex, Torrance, CA, USA) with a 5 µm particle size and gradient elution with a binary solution (eluent A: H2O, eluent B: ACN, both acidified with 0.1% v/v formic acid) was for the chromatographic separation. Analyses started with 5% B (from t = 0 to t = 1 min), then increased to 95% (from t = 1 to t = 10 min), then maintained at 95% (from t = 10 to t = 15 min), and finally returned to […] in 1.0 min. The volume injected was 10 µL, and the flow rate 600 µL/min. UV detection was monitored at 254 nm, and spectra were collected in both the positive and negative modes within the scan range of m/z 100–1500.

[3] = test system: Caco-2 monolayer; test: as above; assay type: in vitro ADME, human; conditions: +SCE 1 mg/mL vs Free
Method: as §1, §2, §3

[4] = known from literature; cited from earlier work

For CC(C)NCC(O)COc1ccc(CC(N)=O)cc1 (stereo not drawn) [Atenolol, atenolol, reference compound], the Cell viability ([1]; 1 µM, vs untreated control) was “no significant signs of toxicity”, the Cell viability ([1]; 100 µM) was “high percentages of viable cells” and the Papp A→B at 2 h, 10 µM ([2]; Caco-2, +SCE [1 mg/mL]) was 91.1 ± 5.72 nm/s. For the same compound, the Papp B→A at 2 h, 10 µM ([2]; Caco-2, +SCE [1 mg/mL]) was 72.7 ± 9.32 nm/s, the Papp A→B at 2 h, 10 µM ([2]; Caco-2, Free) was 2.84 ± 0.11 nm/s and the Papp B→A at 2 h, 10 µM ([2]; Caco-2, Free) was 10.2 ± 1.04 nm/s. The “Change of Papp A-B in presence of SCE vs Free” value [3] was “about 30 fold”, the “Change of Papp B-A in presence of SCE vs Free” value [3] was “seven-fold” and the Papp [4] was “less than 1 × 10^−6 cm/s”.
